Experimental data as given in patent US5200343A, “Method for microbial dehalogenation of haloaliphatic compounds using a sulfate reducing bacteria, desulfomonile tiedjei” (Board of Trustees operating Michigan State University, priority 1991, dated 1993).
For at least one compound, name, drawing or mass did not settle the structure.

Tests used:
[1] = system: Desulfomonile tiedjei cells; test: 3-chlorobenzoate dechlorination by starved stationary phase induced cells with or without pyruvate (Table 3); format: cell-based; details: 3-chlorobenzoate 500 μM, one hour
Protocol: Cultures were grown using strict anaerobic technique in a synthetic minimal medium amended with vitamins (DeWeerd, et al, Arch. of Microbiol. 154, 23-30 (1990)), pyruvate at 20 mM, and reduced with 1 mM cysteine and 0.1 mM Na2 S2 O4. The concentration of nicotinamide and 1,4-naphthoquinone were 500 μgl^-1 and 200 μgl^-1, respectively. Thiamine, hemin and lipoic acid were used at 50 μg/liter. To induce 3-chlorobenzoate dechlorination activity, 3-fluorobenzoate was added to 0.1 mM. The complete medium was inoculated with a 1% transfer from homologous medium (without fluorobenzoate). […]
Cultures were harvested by centrifugation and resuspended in 20 to 40% of the initial volume in a cold anaerobic assay buffer normally consisting of 50 mM NaCl, 10 mM sodium pyruvate, 10 mM HEPES (N-2[hydroxyethylP]piperazine-N'-[2-ethanesulfonic acid], hemisodium salt Sigma);, 0.00001% resazurin and reduced with 1 mM cysteine-HCl and 1 mM titanium (III) citrate. […] The assays were terminated at the indicated times by transferring the serum bottles to an ice water bath, where they were stored until analyzed. Protein concentrations were determined by a modification of the Lowry method (Hanson, R. S. and J. A. Phillips, In P. Gerhardt (ed.) Manual of methods for general microbiology. American Society for Microbiology, Washington, D. C. p. 328-364 (1981)). […]

[2] = system: Desulfomonile tiedjei cells; test: Dehalogenation of halo compounds as substrates by 3-fluorobenzoate induced cells (Table 5, Example 4); format: cell-based; details: average of triplicate assays

In the case of `O=C(O)c1cccc(Cl)c1` [3-chlorobenzoate], the “3ClBz Cl removed” value ([1]; pyruvate + (ca. 10 mM)) is reported as 255 (33) μmol/g prot. in 1 h, the “3ClBz Cl removed” value ([1]; pyruvate -) is reported as 30 (4) μmol/g prot. in 1 h and the “Dehalogenation Rate” value [2] is reported as 358 ± 39 nMol/hr/mg protein.
